In PMC3365016:
Results are given in words; binding and its absence hold for the method and conditions named. Binding seen in cells or lysates may run through a third protein. Sequences can lack the tags named with a protein.

Target: FLAG-tagged nucleolin Ncl-ΔRGG (deletion of the RGG domain) (mouse)
Assay: co-IP; NIH3T3 cells co-transfected with V5-tagged G0S2 and FLAG-tagged nucleolin constructs, lysed after 48 h; 150 mM NaCl, 50 mM Tris pH 8, 1% Triton X-100; immunoblot

B1: V5-tagged G0S2 (G0/G1 switch gene 2), murine, full length (protein, UniProt Q61585 1-103)
chain: MESVQELIPLAKEMMAQKPRGKLVKLYVLGSVLALFGVVLGLVETVCSPFTAASRLRDQEAAVVELREACEQQSLHKQALLAGGKAQEATLCSRALSLRQHAS
B1 was tested, and the binding was “no binding”.
